For test [1], the target named is T1, C1 inhibitor serpin domain (residues 98 to 500) (human) (UniProt P05155).
T1 sequence: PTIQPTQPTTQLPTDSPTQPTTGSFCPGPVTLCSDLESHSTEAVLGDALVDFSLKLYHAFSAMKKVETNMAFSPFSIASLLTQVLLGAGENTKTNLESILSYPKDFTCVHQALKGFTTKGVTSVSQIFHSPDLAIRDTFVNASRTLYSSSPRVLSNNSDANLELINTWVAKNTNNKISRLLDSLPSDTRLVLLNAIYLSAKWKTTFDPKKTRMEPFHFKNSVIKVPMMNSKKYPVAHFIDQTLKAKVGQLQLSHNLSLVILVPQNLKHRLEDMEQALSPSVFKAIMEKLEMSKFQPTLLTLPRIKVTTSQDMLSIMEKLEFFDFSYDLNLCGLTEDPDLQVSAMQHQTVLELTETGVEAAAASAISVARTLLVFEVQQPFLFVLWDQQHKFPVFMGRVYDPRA
The test is described as follows: SEC; 100-ul mixture of C1-INH (20 mM) and Vag8 WT or mutant (10 mM), room temperature, S200 Increase 10/300GL, 50 mM Tris-HCl-150 mM NaCl, pH 8.0, 0.4 ml/min; fractions on SDS-PAGE; both purified.

Test [2] has as its target T1, C1 inhibitor serpin domain (residues 98 to 500) (human). The test is described as follows: cryo-EM structure; single-particle cryo-EM of the purified Vag8-C1-INH complex (0.5 mg/ml), Titan Krios 300 kV, 3.6 A; both purified.
Test [3] shares this target. The test is described as follows: condition: C1-INH (20 mM) and Vag8 WT or mutant (10 mM); SEC; 100-ul mixture of C1-INH (20 mM) and Vag8 WT or mutant (10 mM), room temperature, S200 Increase 10/300GL, 50 mM Tris-HCl-150 mM NaCl, pH 8.0, 0.4 ml/min; fractions on SDS-PAGE; both purified.

These are yes or no findings as the source states them, for the method shown. For some of these results: A result given as binding can be weak or reduced; the word gives no strength.

With “Vag8 passenger domain H209A (Bordetella pertussis) (domain or fragment)”, the binding entry in test [1] is listed as “binds”.
With “Vag8 passenger domain W285A (Bordetella pertussis) (domain or fragment)”, the binding entry in test [1] is given as “binds”.
Turning to “Vag8 passenger domain (residues 40 to 610) (Bordetella pertussis) (domain or fragment)”, the binding result in test [1] and in test [2] was “binds” throughout.
In the case of “Vag8 passenger domain A231R (Bordetella pertussis) (domain or fragment)”, the binding entry in test [3] was “no binding”.
For the substance “Vag8 passenger domain E237A (Bordetella pertussis) (domain or fragment)”, the binding result in test [1] was “binds”.
On to “Vag8 passenger domain Y234A (Bordetella pertussis) (domain or fragment)”, for which the binding entry in test [1] is reported as “binds”.

(Values after PMC8092270.)
